Test results published in patent US20030149000A1, “Method for the treatment of disorders associated with apoptosis using N-heterocyclic glyoxylamide compounds” (Shionogi & Co., Ltd., priority 1998, published 2003).
For at least one compound, name, drawing or mass did not settle the structure.

System: hPLA2-II-induced neuronal cell death
Assay: MTT reduction assay of neuronal survival after hPLA2-II treatment
Format: cell-based, Sprague-Dawley rat
Conditions: 1 μM hPLA2-II in the presence of compound at indicated concentrations; MTT 48 hr after hPLA2-II treatment; FIG. 2
Procedure: According to a method disclosed in Neurosci. Lett. 203, 175-178 Ueda K. et al, Neuronal cultures were prepared from cerebral cortex of 19-day-old Sprague-Dawley rat embryos. The cerebral cortices were dissociated in isotonic buffer (137 mM NaCl, 5.4 mM KCl, 0.17 mM Na2HPO4, 0.22 mM KH2PO4, 5.5 mM Glucose, 59 mM Sucrose; volume of each buffer is 25 ml) with 4 mg/ml trypsin and 0.4 mg/ml deoxyribonuclease I. Cells were plated at a density of 2.5×10^5 cells/cm^2 on poly-L-lysine coated dishes in conditioning medium, Leibovitz's L-15 medium supplemented with 5% fetal calf serum and 5% horse serum. Culture medium was exchanged for conditioning medium containing 0.1 mM arabinosylcytosine C on day 1 after plating. Cultured neurons were used for the experiments on day 2 of culture.
For assessment of neurotoxicity of hPLA2-II according to a method disclosed in Neurosci. […] Absorbance at 570 nm were measured with a microplate reader.
[…] MTT reducing activity was determined 48 hr after hPLA2-II-treatment.
At the indicated time after the treatment with hPLA2-II (1 μM), the compound prepared in Example 2 (final concentration=10 μM) was added to the culture medium. Data are expressed as mean±SEM values (n=4). *P<0.05, **P<0.01, compared with vehicle-treated conditions by ANOVA followed by Dunnett's test. […]

With `CCc1c(C(=O)C(N)=O)c2c(OCC(=O)O)cccn2c1Cc1ccccc1-c1ccccc1` [Example 2, (8-(Carboxymethyloxy)-2-ethyl-3-(o-phenylbenzyl)indolizin-1-yl)glyoxylamide] the “suppression of hPLA2-II-induced neuronal death (MTT reducing activity), co-treatment” value was “suppressed neuronal death in a concentration-dependent manner”.
